Results are given in words; binding and its absence hold for the method and conditions named. Binding seen in cells or lysates may run through a third protein. Some entries that bind do so weakly or less than the wild type.
Target: G protein beta subunit-like protein (GβL) (mouse (endogenous in MFLECs)) (UniProt Q9DCJ1)
Assay: co-IP; lysates of primary MFLECs (5 mM glucose control or 30 mM glucose; also with si-NC or TRAF2 siRNA) incubated with protein A beads pre-bound with an anti-GβL antibody at 4 °C overnight; precipitates analysed by western blot

The chains behind the UniProt entries cited, without tags or fusion partners.
UniProt Q9DCJ1: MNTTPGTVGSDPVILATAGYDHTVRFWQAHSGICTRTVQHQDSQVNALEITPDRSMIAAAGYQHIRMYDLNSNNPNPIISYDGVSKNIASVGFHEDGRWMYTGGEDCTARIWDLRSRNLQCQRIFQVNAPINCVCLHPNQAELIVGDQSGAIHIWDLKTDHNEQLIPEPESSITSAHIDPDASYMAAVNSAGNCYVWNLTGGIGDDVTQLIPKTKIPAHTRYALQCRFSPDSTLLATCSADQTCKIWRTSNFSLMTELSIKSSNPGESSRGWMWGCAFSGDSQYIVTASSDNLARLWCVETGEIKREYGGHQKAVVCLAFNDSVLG
UniProt Q6QI06: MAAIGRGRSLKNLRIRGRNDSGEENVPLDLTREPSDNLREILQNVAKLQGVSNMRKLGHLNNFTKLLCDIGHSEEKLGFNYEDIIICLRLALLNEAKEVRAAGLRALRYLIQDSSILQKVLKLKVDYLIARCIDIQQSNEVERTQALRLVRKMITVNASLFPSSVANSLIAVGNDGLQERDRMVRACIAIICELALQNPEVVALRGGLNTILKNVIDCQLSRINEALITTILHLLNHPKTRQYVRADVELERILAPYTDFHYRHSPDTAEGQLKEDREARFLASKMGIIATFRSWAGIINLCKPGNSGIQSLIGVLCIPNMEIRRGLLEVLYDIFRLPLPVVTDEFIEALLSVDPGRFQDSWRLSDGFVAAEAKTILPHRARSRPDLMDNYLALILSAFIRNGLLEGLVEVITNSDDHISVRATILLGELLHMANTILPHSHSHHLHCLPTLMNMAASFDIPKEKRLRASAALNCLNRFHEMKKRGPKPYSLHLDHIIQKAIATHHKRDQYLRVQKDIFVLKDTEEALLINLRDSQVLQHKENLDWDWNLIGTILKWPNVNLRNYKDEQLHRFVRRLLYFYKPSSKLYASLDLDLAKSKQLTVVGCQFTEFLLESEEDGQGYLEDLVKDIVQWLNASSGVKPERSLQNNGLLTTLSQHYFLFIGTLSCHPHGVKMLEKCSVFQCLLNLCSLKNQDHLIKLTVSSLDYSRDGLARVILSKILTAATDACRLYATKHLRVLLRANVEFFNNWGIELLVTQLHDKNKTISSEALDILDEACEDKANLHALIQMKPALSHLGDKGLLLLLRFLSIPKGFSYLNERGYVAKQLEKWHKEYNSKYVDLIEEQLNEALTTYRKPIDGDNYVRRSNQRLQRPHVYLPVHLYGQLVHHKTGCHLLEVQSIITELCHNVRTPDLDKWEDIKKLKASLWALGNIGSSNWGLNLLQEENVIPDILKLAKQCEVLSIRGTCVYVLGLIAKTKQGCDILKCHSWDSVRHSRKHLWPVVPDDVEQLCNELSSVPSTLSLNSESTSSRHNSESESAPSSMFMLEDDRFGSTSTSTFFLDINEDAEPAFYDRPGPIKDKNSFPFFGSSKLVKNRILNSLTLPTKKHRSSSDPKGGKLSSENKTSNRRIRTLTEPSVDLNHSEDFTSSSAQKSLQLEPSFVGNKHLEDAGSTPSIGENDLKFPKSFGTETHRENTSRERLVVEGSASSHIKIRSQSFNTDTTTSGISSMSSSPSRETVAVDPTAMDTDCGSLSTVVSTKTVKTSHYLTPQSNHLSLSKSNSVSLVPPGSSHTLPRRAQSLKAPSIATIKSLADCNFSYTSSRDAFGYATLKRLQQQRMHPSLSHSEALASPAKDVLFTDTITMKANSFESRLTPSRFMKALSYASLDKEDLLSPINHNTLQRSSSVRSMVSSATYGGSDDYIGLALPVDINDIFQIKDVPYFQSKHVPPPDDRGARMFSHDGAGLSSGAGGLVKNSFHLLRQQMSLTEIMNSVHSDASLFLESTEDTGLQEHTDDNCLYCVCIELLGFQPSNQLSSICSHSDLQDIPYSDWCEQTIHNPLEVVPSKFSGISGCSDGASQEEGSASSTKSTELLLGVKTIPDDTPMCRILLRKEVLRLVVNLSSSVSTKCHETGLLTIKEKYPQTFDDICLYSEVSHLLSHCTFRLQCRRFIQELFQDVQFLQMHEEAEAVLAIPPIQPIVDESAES
UniProt Q8K4Q0: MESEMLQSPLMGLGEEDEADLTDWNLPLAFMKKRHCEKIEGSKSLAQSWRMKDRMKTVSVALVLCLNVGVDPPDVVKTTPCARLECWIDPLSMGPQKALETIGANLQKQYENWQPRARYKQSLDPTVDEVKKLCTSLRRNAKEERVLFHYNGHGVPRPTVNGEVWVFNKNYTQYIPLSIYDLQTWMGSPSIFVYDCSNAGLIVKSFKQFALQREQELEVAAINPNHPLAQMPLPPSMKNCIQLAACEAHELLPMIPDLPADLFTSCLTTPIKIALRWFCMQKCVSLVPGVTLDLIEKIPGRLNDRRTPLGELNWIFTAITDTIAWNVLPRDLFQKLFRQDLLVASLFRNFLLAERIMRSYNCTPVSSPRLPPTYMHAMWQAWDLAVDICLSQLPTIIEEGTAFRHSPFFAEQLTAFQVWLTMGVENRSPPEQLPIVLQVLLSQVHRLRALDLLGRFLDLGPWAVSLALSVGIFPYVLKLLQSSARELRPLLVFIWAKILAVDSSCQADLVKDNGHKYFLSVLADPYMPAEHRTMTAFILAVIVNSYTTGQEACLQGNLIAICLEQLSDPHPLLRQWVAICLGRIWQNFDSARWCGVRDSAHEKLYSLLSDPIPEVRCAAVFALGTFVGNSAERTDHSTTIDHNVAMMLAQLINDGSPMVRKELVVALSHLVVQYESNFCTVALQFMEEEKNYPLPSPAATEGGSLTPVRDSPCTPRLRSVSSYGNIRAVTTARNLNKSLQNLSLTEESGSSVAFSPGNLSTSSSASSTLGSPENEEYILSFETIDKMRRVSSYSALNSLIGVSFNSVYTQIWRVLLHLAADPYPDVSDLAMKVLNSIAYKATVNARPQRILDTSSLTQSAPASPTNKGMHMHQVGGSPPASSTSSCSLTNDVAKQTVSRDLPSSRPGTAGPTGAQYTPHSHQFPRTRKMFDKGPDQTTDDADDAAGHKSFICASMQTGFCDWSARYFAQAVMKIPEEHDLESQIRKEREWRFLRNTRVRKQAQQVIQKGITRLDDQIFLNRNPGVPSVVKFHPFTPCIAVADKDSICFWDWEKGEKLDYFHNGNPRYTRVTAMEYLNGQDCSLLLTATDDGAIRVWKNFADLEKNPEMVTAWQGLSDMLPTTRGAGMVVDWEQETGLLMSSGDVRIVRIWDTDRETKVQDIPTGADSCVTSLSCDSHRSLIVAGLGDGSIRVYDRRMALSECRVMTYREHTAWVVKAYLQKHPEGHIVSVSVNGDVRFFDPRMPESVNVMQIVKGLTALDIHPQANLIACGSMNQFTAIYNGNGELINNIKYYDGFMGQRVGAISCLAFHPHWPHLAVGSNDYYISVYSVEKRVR
UniProt Q8BKH7: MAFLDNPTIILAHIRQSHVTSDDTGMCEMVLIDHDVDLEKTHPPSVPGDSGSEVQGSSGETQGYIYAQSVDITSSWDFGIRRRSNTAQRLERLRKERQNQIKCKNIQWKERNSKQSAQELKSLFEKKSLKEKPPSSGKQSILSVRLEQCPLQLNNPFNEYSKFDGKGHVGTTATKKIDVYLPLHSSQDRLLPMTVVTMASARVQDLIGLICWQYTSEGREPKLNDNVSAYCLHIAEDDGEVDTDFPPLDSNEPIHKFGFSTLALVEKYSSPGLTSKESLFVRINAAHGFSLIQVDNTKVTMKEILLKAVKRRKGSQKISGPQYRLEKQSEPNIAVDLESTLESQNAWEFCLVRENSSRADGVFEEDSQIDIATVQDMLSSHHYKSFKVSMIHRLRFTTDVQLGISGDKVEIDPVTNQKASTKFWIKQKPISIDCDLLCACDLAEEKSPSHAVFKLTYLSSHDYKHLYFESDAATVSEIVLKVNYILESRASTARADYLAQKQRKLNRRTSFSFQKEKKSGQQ

Row | binding | Substance
1 | binds | rapamycin-insensitive companion of mTOR (Rictor) (from UniProt Q6QI06 1-1708)
2 | binds | regulatory-associated protein of mTOR (Raptor) (from UniProt Q8K4Q0 1-1335)
3 | binds | stress-activated protein kinase interacting protein 1 (Sin1) (from UniProt Q8BKH7 1-522)
